# Cleaved PARP in drug-treated melanoma cells

Data from the primary screen of doi:10.1371/journal.pone.0140310, rounded.

Drugs:
lestaurtinib, 0.02 µM: C[C@]12O[C@H](C[C@]1(O)CO)n1c3ccccc3c3c4c(c5c6ccccc6n2c5c31)CNC4=O
sunitinib, 2 µM: CCN(CC)CCNC(=O)c1c(C)[nH]c(/C=C2\C(=O)Nc3ccc(F)cc32)c1C
nutlin-3, 0.5 µM: COc1ccc(C2=N[C@@H](c3ccc(Cl)cc3)[C@@H](c3ccc(Cl)cc3)N2C(=O)N2CCNC(=O)C2)c(OC(C)C)c1
FH535, 5 µM: Cc1cc([N+](=O)[O-])ccc1NS(=O)(=O)c1cc(Cl)ccc1Cl
BI-78D3, 1 µM: O=c1[nH]nc(Sc2ncc([N+](=O)[O-])s2)n1-c1ccc2c(c1)OCCO2
GW441756, 2 µM: Cn1cc(/C=C2\C(=O)Nc3cccnc32)c2ccccc21
vismodegib, 5 µM: CS(=O)(=O)c1ccc(C(=O)Nc2ccc(Cl)c(-c3ccccn3)c2)c(Cl)c1
A-769662, 10 µM: N#Cc1c(O)c2c(-c3ccc(-c4ccccc4O)cc3)csc2[nH]c1=O
nilotinib, 1 µM: Cc1cn(-c2cc(NC(=O)c3ccc(C)c(Nc4nccc(-c5cccnc5)n4)c3)cc(C(F)(F)F)c2)cn1
crizotinib, 1 µM: C[C@@H](Oc1cc(-c2cnn(C3CCNCC3)c2)cnc1N)c1c(Cl)ccc(F)c1Cl

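The test systems are human melanoma cell lines, treated with two drugs together for 72 h and then stained and imaged. Each value is the cleaved-PARP-positive fraction of nuclei relative to DMSO-treated wells, in %, so that 100 equals the control and higher values mean more apoptosis. Every drug was used at one fixed concentration, the higher of two screened. No replicate spread is given; individual values may be noisy. The marker varies much from line to line, for technical or biological reasons.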 This is part of the screen, not chosen by result.

| Drugs | C32 |
|---|---|
| A-769662 + GW441756 | 100 |
| crizotinib + sunitinib | 159 |
| vismodegib + A-769662 | 69.0 |
| nutlin-3 + FH535 | 192 |
| FH535 + lestaurtinib | 96.4 |
| sunitinib + A-769662 | 86.3 |
| sunitinib + nutlin-3 | 98.0 |
| lestaurtinib + sunitinib | 85.8 |
| nilotinib + nutlin-3 | 109 |
| BI-78D3 + crizotinib | 213 |
| GW441756 + nilotinib | 97.1 |
| nutlin-3 + BI-78D3 | 67.6 |
| A-769662 + crizotinib | 79.2 |
| FH535 + BI-78D3 | 76.4 |
| nilotinib + crizotinib | 148 |
| FH535 + vismodegib | 68.3 |
| nutlin-3 + vismodegib | 31.1 |
| nilotinib + A-769662 | 95.4 |
| crizotinib + FH535 | 95.8 |
| GW441756 + vismodegib | 69.9 |
| GW441756 + nutlin-3 | 99.2 |
| FH535 + nilotinib | 79.7 |
| BI-78D3 + lestaurtinib | 134 |
| GW441756 + sunitinib | 191 |
| nilotinib + BI-78D3 | 35.3 |
| crizotinib + vismodegib | 38.8 |
| vismodegib + lestaurtinib | 57.2 |

The last 3 entries again:

Drugs,C32
nilotinib + BI-78D3,35.3
crizotinib + vismodegib,38.8
vismodegib + lestaurtinib,57.2